# Negatives hold for the conditions tested. For some assays here: The exact form of at least one protein or probe is not confirmed.
# Chains of the proteins cited; added tags and fusions are not shown. Residues count along the entry.
# UniProt P02769, 25-607: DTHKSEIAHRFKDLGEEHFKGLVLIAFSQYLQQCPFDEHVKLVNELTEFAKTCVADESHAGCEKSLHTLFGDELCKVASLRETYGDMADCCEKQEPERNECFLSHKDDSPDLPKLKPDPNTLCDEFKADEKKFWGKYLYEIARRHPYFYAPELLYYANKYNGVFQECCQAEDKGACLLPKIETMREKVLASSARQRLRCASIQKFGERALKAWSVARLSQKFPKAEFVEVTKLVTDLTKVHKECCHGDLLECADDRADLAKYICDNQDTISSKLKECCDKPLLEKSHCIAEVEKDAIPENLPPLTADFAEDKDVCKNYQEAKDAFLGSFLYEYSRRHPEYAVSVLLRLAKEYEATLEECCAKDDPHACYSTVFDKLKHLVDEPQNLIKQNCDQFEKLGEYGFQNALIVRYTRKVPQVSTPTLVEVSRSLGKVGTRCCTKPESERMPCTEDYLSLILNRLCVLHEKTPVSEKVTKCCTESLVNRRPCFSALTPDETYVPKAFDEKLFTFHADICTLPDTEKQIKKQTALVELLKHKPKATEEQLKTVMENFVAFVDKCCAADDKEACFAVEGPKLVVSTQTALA
# Columns and labels:
# [1] = molecular target: bovine serum albumin (BSA) (bovine) (UniProt P02769); test: strand-displacement release of rhodamine 6G and Apixaban from gated NMOFs (fluorescence); conditions: 1 uM protein, background release only; strand 2 (anchor): 5'-NH2-(CH2)6, DBCO-modified, clicked to azide-functionalized UiO-68 NMOF; 10 mM HEPES pH 7.4, 20 mM NaCl, 10 mM KCl, 10 mM MgCl2; 30 min; temperature not stated; commercial protein
# hemoglobin = test: as above; conditions: 1 uM protein, background release only; strand 2 (anchor): 5'-NH2-(CH2)6, DBCO-modified, clicked to azide-functionalized UiO-68 NMOF; 10 mM HEPES pH 7.4, 20 mM NaCl, 10 mM KCl, 10 mM MgCl2; 30 min; temperature not stated; commercial protein
sequence,measurement,setting,value
GGTTGGTGTGGTTGGTTTT / AAAACCAACCA,binding result,[1],no binding
same,binding result,hemoglobin,no binding
